Hit rate of the full screen: of about 340,000 compounds, about 6,200 (1.8%) were called active. This list was built around the results that the source calls inconclusive (neither active nor inactive); the mix of calls is not that of the screen. The call rests on the fitted dose curve; in most records, active means well fitted activation curve with a large enough effect; inconclusive means small, poorly fitted or top-dose-only effect; inactive means no such curve, though single readings can be large or run the other way. Potencies beside an inconclusive call are fits to weak or partial responses and may not hold up.
experiment: A quantitative high throughput screen for small molecules that induce DNA re-replication in SW480 colon adenocarcinoma cells.; further: nearly all actives have a fitted effect of over 55% in size; on re-replication activation: % of control where 0% means no effect; details: Hoechst DNA content imaging, 48 h; re-replication activation: at 46.1 µM (top of the series) unless noted
Summary of the method: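 250 cells/well; 23 nL cpd via pin tool; 48 hr, 37 C, 5% CO2; Hoechst 40 min; imager read of total nuclear intensity, ex 405/em 500-530 nm.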
Potency means the concentration at half of the fitted maximal effect.

Structure (SMILES)	re-replication activation	Potency
O=C(Nc1nccs1)c1ccc(-c2cccc([N+](=O)[O-])c2)o1	inactive: -5.71%	
Cc1cc(=O)[nH]c(N/N=C2/CCCC/C2=C\c2ccccc2)n1		inconclusive: 16.4 µM [activator, single point]
Cc1cc(-n2c(SCC(=O)Nc3ccc(F)c(F)c3)nc3n[nH]c(C)c3c2=N)ccc1Cl		inconclusive: 6.51 µM [activator, single point]
CCOC(=O)C(Cc1ccccc1)C(=O)NCc1ccccc1 (stereo not given)		inconclusive: 0.517 µM [activator, full curve, poor fit]
COC(=O)CN1C(=O)COc2ccc(S(=O)(=O)NCc3ccc(F)cc3)cc21		inconclusive: 0.58 µM [activator, single point]
COC(=O)C1=C(C)NC(C)=C(C(=O)OCCN2CCN(C(c3ccccc3)c3ccccc3)CC2)C1c1cccc([N+](=O)[O-])c1 (stereo not given)		inconclusive: 13.3 µM [activator, single point]
Oc1ccc(/C=N/Nc2nc(N3CCCCCC3)nc(N3CCCCCC3)n2)c(O)c1		inconclusive: 4.61 µM [activator, partial curve, poor fit]
COC(=O)c1ccc(-c2csc(NC(=O)c3ccc(S(=O)(=O)N4CCc5ccccc5C4)cc3)n2)cc1		inconclusive: 2.59 µM [activator, partial curve, poor fit]
Cc1ccc(CC2SC(=Nc3ccccc3)N(c3ccccc3)C2=O)cc1 (stereo not given)		inconclusive: 18.4 µM [activator, single point]
COc1ccc(S(=O)(=O)N2CCOCC2)cc1NC(=O)CC(C)c1ccccc1 (stereo not given)	inactive: -8.67%	
COc1ccc(NC(=O)/C=C/c2cccc(Br)c2)cn1	inactive: 0.665%	
Cc1ccc(OCc2ccc(C(=O)Nc3ccc(S(N)(=O)=O)cc3)o2)cc1		inconclusive: 3.26 µM [activator, partial curve, poor fit]
O=C1CN(C(=O)c2ccc(Cl)c(S(=O)(=O)N3CCc4ccccc43)c2)c2ccccc2N1		inconclusive: 29.1 µM [activator, single point]
CC(C)[n+]1ccn(C2=C([O-])c3ccccc3C(=O)/C2=N\S(=O)(=O)c2ccccc2)c1		inconclusive: 20.6 µM [activator, single point]
COc1ccc(-c2c(C#N)c(N)nc3c2CCCCCC3)cc1OC	inactive: 13.5%	
COCCNC(=O)C1Cc2cc(S(=O)(=O)N3CCCC3)ccc2N1C(C)=O (stereo not given)		inconclusive: 20.6 µM [activator, single point]
COc1cccc(C2=NOC(C(=O)NCc3ccccc3)C2)c1 (stereo not given)		inconclusive: 18.4 µM [activator, single point]
CCCOc1ccc(/C=C2/C(=O)ON=C2C)cc1OCC		inconclusive: 18.4 µM [activator, single point]
COC(=O)C1=C(N)N(c2ccccc2C(F)(F)F)C2=C(C(=O)CCC2)C1c1ccc2c(c1)OCO2 (stereo not given)	inactive: -1.63%	
CC1CCN(S(=O)(=O)c2ccc(C(=O)OC(C)C(=O)N(C)C3CCCCC3)cc2)CC1 (stereo not given)		inconclusive: 0.731 µM [activator, full curve, poor fit]

Ten of the compounds above, as a markdown table:

| Structure (SMILES) | re-replication activation | Potency |
| --- | --- | --- |
| Cc1ccc(CC2SC(=Nc3ccccc3)N(c3ccccc3)C2=O)cc1 (stereo not given) |  | inconclusive: 18.4 µM [activator, single point] |
| COc1ccc(S(=O)(=O)N2CCOCC2)cc1NC(=O)CC(C)c1ccccc1 (stereo not given) | inactive: -8.67% |  |
| COc1ccc(NC(=O)/C=C/c2cccc(Br)c2)cn1 | inactive: 0.665% |  |
| Cc1ccc(OCc2ccc(C(=O)Nc3ccc(S(N)(=O)=O)cc3)o2)cc1 |  | inconclusive: 3.26 µM [activator, partial curve, poor fit] |
| O=C1CN(C(=O)c2ccc(Cl)c(S(=O)(=O)N3CCc4ccccc43)c2)c2ccccc2N1 |  | inconclusive: 29.1 µM [activator, single point] |
| CC(C)[n+]1ccn(C2=C([O-])c3ccccc3C(=O)/C2=N\S(=O)(=O)c2ccccc2)c1 |  | inconclusive: 20.6 µM [activator, single point] |
| COc1ccc(-c2c(C#N)c(N)nc3c2CCCCCC3)cc1OC | inactive: 13.5% |  |
| COCCNC(=O)C1Cc2cc(S(=O)(=O)N3CCCC3)ccc2N1C(C)=O (stereo not given) |  | inconclusive: 20.6 µM [activator, single point] |
| COc1cccc(C2=NOC(C(=O)NCc3ccccc3)C2)c1 (stereo not given) |  | inconclusive: 18.4 µM [activator, single point] |
| CCCOc1ccc(/C=C2/C(=O)ON=C2C)cc1OCC |  | inconclusive: 18.4 µM [activator, single point] |

(cont.)

Structure (SMILES)	re-replication activation	Potency
CSc1ccc(CN(C)C(=O)c2cc3ccccc3o2)cc1		inconclusive: 8.2 µM [activator, partial curve, poor fit]
Cc1ccc(S(=O)(=O)N2[C@@H](c3ccc4c(c3)OCO4)C(C(=O)O)=C[C@H]2CC2CCCC2)cc1		inconclusive: 29.1 µM [activator, partial curve, poor fit]
Cc1ccc(-c2cc(C(=O)NCCN3CCOCC3)c3ccccc3n2)o1		inconclusive: 29.1 µM [activator, single point]
CCOC(=O)c1c(N)sc2c1CCN(CCc1ccccc1)C2		inconclusive: 29.1 µM [activator, single point]
CC(C)CNC(=O)CC(=O)NN=C1CCCC1		inconclusive: 0.116 µM [activator, full curve, poor fit]
Cc1ccc(S(=O)(=O)N(C)C)cc1NC(=O)C(C)OC(=O)C1CCCC1 (stereo not given)	inactive: -2.51%	
COc1ccc(/C=N/Nc2cc(C)nc(NS(=O)(=O)c3ccc(C)cc3)n2)cc1	inactive: 2.75%	
CC(C)N(C(=O)Nc1ccc2nsnc2c1)C(C)C		inconclusive: 18.4 µM [activator, single point]
CC(C)(C)C1CCc2c(sc3nc(SCC(=O)O)nc(N)c23)C1 (stereo not given)		inconclusive: 16.4 µM [activator, single point]
Cn1c(=O)c2c(nc3n2CC(COc2ccc(Cl)cc2)O3)n(C)c1=O (stereo not given)		inconclusive: 0.366 µM [activator, partial curve, poor fit]
C=CCc1cccc(/C=N/NC(=O)c2ccccc2OC)c1O		inconclusive: 14.6 µM [activator, partial curve]
O=C(NNC(=O)c1ccccc1F)c1cccc(S(=O)(=O)N2CCc3ccccc32)c1		inconclusive: 18.4 µM [activator, partial curve, poor fit]
COc1ccc(C(=O)/C=C/c2ccsc2)cc1CSCC(=O)O		inconclusive: 29.1 µM [activator, partial curve, poor fit]
Oc1ccccc1C=NC(c1ccccc1)C(O)c1ccccc1 (stereo not given)		inconclusive: 0.411 µM [activator, partial curve, poor fit]
Cc1cc2ccccn2c1C(=O)c1cc([N+](=O)[O-])cc([N+](=O)[O-])c1		inconclusive: 29.1 µM [activator, partial curve, poor fit]
CS(=O)(=O)c1ccccc1C(=O)Nc1cc2c(cc1C(=O)O)OCCCO2	inactive: 2.81%	
O=[N+]([O-])c1cc(C(F)(F)F)cc([N+](=O)[O-])c1NCCNC(=S)Nc1ccc(Cl)c(Cl)c1	inactive: -0.35%	
CCN(CC)CCNC(=O)Cc1nn(Cc2ccccc2)c(=O)c2ccccc12		active: 2.31 µM
Cc1nnsc1C(=O)N/N=C/c1ccc2ccccc2c1O		inconclusive: 0.82 µM [activator, full curve, poor fit]
CC(=O)c1c(COC(=O)c2ccc(Cl)cc2)nc2ccccc2[n+]1[O-]		inconclusive: 23.1 µM [activator, partial curve, poor fit]

— PubChem BioAssay AID624297 (National Center for Advancing Translational Sciences (NCATS), 2012)
